# From the supplement of paper PMC8728848
# The list shows a part of the results.
# B1: GST-Gap1 (Streptococcus parasanguinis), A1C3L5 (protein)
# chain: MFYFVPSWYNGQRQWYYDTPWWFRVKNRMTFDDSVNQVKMFLQGQEEIGLMILNYQPQLRYFLHKQNIFGIYYWSFFDDIQNITRSYTKIIHLKDLNWPEGCEFLYSPFAVVVRLKGEIFAIVNYAEDGNLHSVSFQKNGKVTKDYIFDDRGFLSSILYYDIDERPLYQDYLNINGVWQVREFLKKENDPTPILMINDFSDQTFSKKYYNGWEELIKERLAIFQNNHVENEDVFVLASDTQHNQLVSSIFKEHRKIYSFFGNRFNLENLGQDRISINDATFLVVDTEKNEELLRKTCENLVFKSIPIVRLSPFDSRLRLGHSQTVKEQIIYFHIDNIELDELYSVIAIILELMTLHLDIELRIVTFRQDFQLDLLKTWIIDFIKTNHFEDLLFKQISEGENEIEDEGEIELSRIAMECFTNENQIIKCLDTARLVIDLGIEPDLYTQIASISAGIPQINRVSSDYVIHQKNGLVISDISKLSSAIEFYFDGLFNWNEALIYAVRKMSDYTSGKILKQWKGMLKKK
# What was measured:
# Experiment in all cases: glycan array binding signal (z-score within array); higher = stronger binding
# Settings in all cases: glycan notation: IUPAC condensed, linker removed
# [1] = target: Neu5Ac(a2-6)Gal(b1-4)GlcNAc(b1-2)[Neu5Ac(a2-6)Gal(b1-4)GlcNAc(b1-4)]Man(a1-3)[GlcNAc(b1-4)][Neu5Ac(a2-6)Gal(b1-4)GlcNAc(b1-2)[Neu5Ac(a2-6)Gal(b1-4)GlcNAc(b1-6)]Man(a1-6)]Man(b1-4)GlcNAc(b1-4)GlcNAc
# Summary of the method: (§1)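 Glycan array binding is given as a within-array Z-score, which can be read as non-binding when negative. The arrays, 3228 of them, came from the Consortium for Functional Glycomics database and were retained only where the protein sequence was available. Z-scores were averaged across arrays of the same protein sequence at different concentrations or buffers and across linkers.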
# [2] = target: Neu5Ac(a2-6)Gal(b1-4)GlcNAc(b1-2)[Neu5Ac(a2-6)Gal(b1-4)GlcNAc(b1-4)]Man(a1-3)[GlcNAc(b1-4)][Neu5Ac(a2-6)Gal(b1-4)GlcNAc(b1-4)Man(a1-6)]Man(b1-4)GlcNAc(b1-4)GlcNAc
# Summary of the method: as §1
# [3] = target: Neu5Ac(a2-6)Gal(b1-4)GlcNAc(b1-2)[Neu5Ac(a2-6)Gal(b1-4)GlcNAc(b1-6)]Man(a1-6)[Neu5Ac(a2-6)Gal(b1-4)GlcNAc(b1-2)Man(a1-3)][GlcNAc(b1-4)]Man(b1-4)GlcNAc(b1-4)GlcNAc
# Summary of the method: as §1
# [4] = target: Neu5Ac(a2-6)Gal(b1-4)GlcNAc(b1-3)Gal(b1-3)GlcNAc
# Summary of the method: as §1
# [5] = target: Neu5Ac(a2-6)Gal(b1-4)GlcNAc(b1-3)Gal(b1-4)GlcNAc
# Summary of the method: as §1
# [6] = target: Neu5Ac(a2-6)Gal(b1-4)GlcNAc(b1-3)Gal(b1-4)GlcNAc(b1-2)Man(a1-3)[Neu5Ac(a2-6)Gal(b1-4)GlcNAc(b1-3)Gal(b1-4)GlcNAc(b1-2)Man(a1-6)]GalNAc
# Summary of the method: as §1
# [7] = target: Neu5Ac(a2-6)Gal(b1-4)GlcNAc(b1-3)Gal(b1-4)GlcNAc(b1-3)Gal(b1-4)GlcNAc
# Summary of the method: as §1
# [8] = target: Neu5Ac(a2-6)Gal(b1-4)GlcNAc(b1-3)Gal(b1-4)GlcNAc(b1-3)Gal(b1-4)GlcNAc(b1-2)Man(a1-3)[Neu5Ac(a2-6)Gal(b1-4)GlcNAc(b1-3)Gal(b1-4)GlcNAc(b1-3)Gal(b1-4)GlcNAc(b1-2)Man(a1-6)]GalNAc
# Summary of the method: as §1
# [9] = target: Neu5Ac(a2-6)Gal(b1-4)GlcNAc(b1-3)Gal(b1-4)GlcNAc(b1-3)GalNAc
# Summary of the method: as §1
# [10] = target: Neu5Ac(a2-6)Gal(b1-4)GlcNAc(b1-3)Gal(b1-4)GlcNAc(b1-3)[Neu5Ac(a2-6)Gal(b1-4)GlcNAc(b1-3)Gal(b1-4)GlcNAc(b1-6)]GalNAc
# Summary of the method: as §1
# [11] = target: Neu5Ac(a2-6)Gal(b1-4)GlcNAc(b1-3)Gal(b1-4)GlcNAc(b1-6)[Gal(b1-3)]GalNAc
# Summary of the method: as §1
# [12] = target: Neu5Ac(a2-6)Gal(b1-4)GlcNAc(b1-3)Gal(b1-4)[Fuc(a1-3)]GlcNAc(b1-3)Gal(b1-4)[Fuc(a1-3)]GlcNAc
# Summary of the method: as §1
# [13] = target: Neu5Ac(a2-6)Gal(b1-4)GlcNAc(b1-3)GalNAc
# Summary of the method: as §1
# [14] = target: Neu5Ac(a2-6)Gal(b1-4)GlcNAc(b1-3)[Neu5Ac(a2-6)Gal(b1-4)GlcNAc(b1-6)]GalNAc
# Summary of the method: as §1
# [15] = target: Neu5Ac(a2-6)Gal(b1-4)GlcNAc(b1-6)GalNAc
# Summary of the method: as §1
# [16] = target: Neu5Ac(a2-6)Gal(b1-4)GlcNAc(b1-6)[Gal(b1-3)GlcNAc(b1-3)]Gal(b1-4)Glc
# Summary of the method: as §1
# [17] = target: Neu5Ac(a2-6)Gal(b1-4)GlcNAc(b1-6)[Gal(b1-3)]GalNAc
# Summary of the method: as §1
# [18] = target: Neu5Ac(a2-6)Gal(b1-4)GlcNAc6S
# Summary of the method: as §1
# Neu5Ac(a2-6)GalNAc = target: Neu5Ac(a2-6)GalNAc
# Summary of the method: as §1
# [19] = target: Neu5Ac(a2-6)GalNAc(b1-4)GlcNAc
# Summary of the method: as §1
# [20] = target: Neu5Ac(a2-6)GalNAc(b1-4)GlcNAc6S
# Summary of the method: as §1
# [21] = target: Neu5Ac(a2-6)GlcNAc(b1-4)GlcNAc
# Summary of the method: as §1
# [22] = target: Neu5Ac(a2-6)GlcNAc(b1-4)GlcNAc(b1-4)GlcNAc
# Summary of the method: as §1
# Neu5Ac(a2-8)Neu5Ac = target: Neu5Ac(a2-8)Neu5Ac
# Summary of the method: as §1
# [23] = target: Neu5Ac(a2-8)Neu5Ac(a2-3)Gal(b1-3)GalNAc(b1-4)[Neu5Ac(a2-3)]Gal(b1-4)Glc
# Summary of the method: as §1
# [24] = target: Neu5Ac(a2-8)Neu5Ac(a2-3)Gal(b1-3)GalNAc(b1-4)[Neu5Ac(a2-8)Neu5Ac(a2-3)]Gal(b1-4)Glc
# Summary of the method: as §1
# [25] = target: Neu5Ac(a2-8)Neu5Ac(a2-3)Gal(b1-4)Glc
# Summary of the method: as §1
# [26] = target: Neu5Ac(a2-8)Neu5Ac(a2-3)Gal(b1-4)GlcNAc
# Summary of the method: as §1
# [27] = target: Neu5Ac(a2-8)Neu5Ac(a2-3)[Gal(b1-3)GalNAc(b1-4)]Gal(b1-4)Glc
# Summary of the method: as §1
# [28] = target: Neu5Ac(a2-8)Neu5Ac(a2-3)[GalNAc(b1-4)]Gal(b1-4)Glc
# Summary of the method: as §1
# [29] = target: Neu5Ac(a2-8)Neu5Ac(a2-8)Neu5Ac
# Summary of the method: as §1
# [30] = target: Neu5Ac(a2-8)Neu5Ac(a2-8)Neu5Ac(a2-3)Gal(b1-4)Glc
# Summary of the method: as §1
# [31] = target: Neu5Ac(a2-8)Neu5Ac(a2-8)Neu5Ac(a2-3)[Gal(b1-3)GalNAc(b1-4)]Gal(b1-4)Glc
# Summary of the method: as §1
# [32] = target: Neu5Ac(a2-8)Neu5Ac(a2-8)Neu5Ac(a2-3)[GalNAc(b1-4)]Gal(b1-4)Glc
# Summary of the method: as §1
# [33] = target: Neu5Ac(a2-8)Neu5Ac(a2-8)Neu5Ac(a2-8)Neu5Ac(a2-3)[GalNAc(b1-4)]Gal(b1-4)Glc
# Summary of the method: as §1
# [34] = target: Neu5Ac(a2-8)Neu5Gc(a2-3)Gal(b1-4)GlcNAc
# Summary of the method: as §1
# [35] = target: Neu5Ac(b2-6)Gal(b1-4)GlcNAc
# Summary of the method: as §1
# Neu5Ac(b2-6)GalNAc = target: Neu5Ac(b2-6)GalNAc
# Summary of the method: as §1
# [36] = target: Neu5Ac9Ac(a2-3)Gal(b1-3)GlcNAc
# Summary of the method: as §1
# [37] = target: Neu5Ac9Ac(a2-3)Gal(b1-4)GlcNAc
# Summary of the method: as §1
# [38] = target: Neu5Ac9Ac(a2-6)Gal(b1-4)GlcNAc
# Summary of the method: as §1
# [39] = target: Neu5Gc(a2-3)Gal(b1-3)GlcNAc
# Summary of the method: as §1
# [40] = target: Neu5Gc(a2-3)Gal(b1-3)[Fuc(a1-4)]GlcNAc
# Summary of the method: as §1
# Neu5Gc(a2-3)Gal(b1-4)Glc = target: Neu5Gc(a2-3)Gal(b1-4)Glc
# Summary of the method: as §1
# [41] = target: Neu5Gc(a2-3)Gal(b1-4)GlcNAc
# Summary of the method: as §1
# [42] = target: Neu5Gc(a2-3)Gal(b1-4)GlcNAc(b1-3)Gal(b1-4)GlcNAc(b1-2)Man(a1-3)[Neu5Gc(a2-3)Gal(b1-4)GlcNAc(b1-3)Gal(b1-4)GlcNAc(b1-2)Man(a1-6)]Man(b1-4)GlcNAc(b1-4)GlcNAc
# Summary of the method: as §1
# [43] = target: Neu5Gc(a2-3)Gal(b1-4)[Fuc(a1-3)]GlcNAc
# Summary of the method: as §1
# [44] = target: Neu5Gc(a2-6)Gal(b1-4)GlcNAc
# Summary of the method: as §1
# Neu5Gc(a2-6)GalNAc = target: Neu5Gc(a2-6)GalNAc
# Summary of the method: as §1
# [45] = target: Neu5Gc(a2-8)Neu5Ac(a2-3)Gal(b1-4)GlcNAc
# Summary of the method: as §1
# [46] = target: Neu5Gc(a2-8)Neu5Gc(a2-3)Gal(b1-4)GlcNAc
# Summary of the method: as §1
# [47] = target: Neu5Gc(a2-8)Neu5Gc(a2-3)Gal(b1-4)GlcNAc(b1-3)Gal(b1-4)GlcNAc
# Summary of the method: as §1
# [48] = target: Neu5Gc(a2-8)Neu5Gc(a2-6)Gal(b1-4)GlcNAc
# Summary of the method: as §1
# [49] = target: Neu5Gc(b2-6)Gal(b1-4)GlcNAc
# Summary of the method: as §1
binder,measurement,setting,value
B1,glycan array binding signal (z-score),[1],-0.54
same,glycan array binding signal (z-score),[2],-0.986
same,glycan array binding signal (z-score),[3],-0.455
same,glycan array binding signal (z-score),[4],-0.308
same,glycan array binding signal (z-score),[5],-0.395
same,glycan array binding signal (z-score),[6],-0.327
same,glycan array binding signal (z-score),[7],-0.204
same,glycan array binding signal (z-score),[8],2.53
same,glycan array binding signal (z-score),[9],1.02
same,glycan array binding signal (z-score),[10],1.25
same,glycan array binding signal (z-score),[11],-1.12
same,glycan array binding signal (z-score),[12],-0.413
same,glycan array binding signal (z-score),[13],-0.167
same,glycan array binding signal (z-score),[14],0.03
same,glycan array binding signal (z-score),[15],1.54
same,glycan array binding signal (z-score),[16],-0.613
same,glycan array binding signal (z-score),[17],-0.402
same,glycan array binding signal (z-score),[18],0.323
same,glycan array binding signal (z-score),Neu5Ac(a2-6)GalNAc,-0.126
same,glycan array binding signal (z-score),[19],-0.49
same,glycan array binding signal (z-score),[20],-0.037
same,glycan array binding signal (z-score),[21],-0.414
same,glycan array binding signal (z-score),[22],-0.133
same,glycan array binding signal (z-score),Neu5Ac(a2-8)Neu5Ac,-0.737
same,glycan array binding signal (z-score),[23],0.25
same,glycan array binding signal (z-score),[24],0.195
same,glycan array binding signal (z-score),[25],0.176
same,glycan array binding signal (z-score),[26],-0.482
same,glycan array binding signal (z-score),[27],-0.001
same,glycan array binding signal (z-score),[28],-0.242
same,glycan array binding signal (z-score),[29],-0.489
same,glycan array binding signal (z-score),[30],-0.375
same,glycan array binding signal (z-score),[31],-0.581
same,glycan array binding signal (z-score),[32],0.044
same,glycan array binding signal (z-score),[33],-1.06
same,glycan array binding signal (z-score),[34],-1.39
same,glycan array binding signal (z-score),[35],-0.254
same,glycan array binding signal (z-score),Neu5Ac(b2-6)GalNAc,-0.088
same,glycan array binding signal (z-score),[36],0.283
same,glycan array binding signal (z-score),[37],-0.629
same,glycan array binding signal (z-score),[38],-0.139
same,glycan array binding signal (z-score),[39],0.544
same,glycan array binding signal (z-score),[40],-0.052
same,glycan array binding signal (z-score),Neu5Gc(a2-3)Gal(b1-4)Glc,-0.763
same,glycan array binding signal (z-score),[41],-0.003
same,glycan array binding signal (z-score),[42],-0.393
same,glycan array binding signal (z-score),[43],0
same,glycan array binding signal (z-score),[44],0.487
same,glycan array binding signal (z-score),Neu5Gc(a2-6)GalNAc,0.105
same,glycan array binding signal (z-score),[45],-0.655
same,glycan array binding signal (z-score),[46],-1.05
same,glycan array binding signal (z-score),[47],-0.512
same,glycan array binding signal (z-score),[48],-0.225
same,glycan array binding signal (z-score),[49],0.161

# Given with tabs: entries from further up.
binder	measurement	setting	value
B1	glycan array binding signal (z-score)	[27]	-0.001
same	glycan array binding signal (z-score)	[28]	-0.242
same	glycan array binding signal (z-score)	[29]	-0.489
